Some of these results come from one statement about several compounds together.
System: Pyricularia oryzae
Type: cell-based
Details: 300 ppm; radial growth after seven days at 25° C., 60% relative humidity

SMILES	control compared to the untreated check [%]
CNC(=O)c1ccc(Cc2noc(C(F)(F)F)n2)cc1 [Compound 40, N-methyl-4-((5-(trifluoromethyl)-1,2,4-oxadiazol-3-yl)methyl)benzamide]	> 70
CC(C)(C)OC(=O)Nc1ccc(Cc2noc(C(F)(F)F)n2)cc1 [Compound 52, tert-butyl (4-((5-(trifluoromethyl)-1,2,4-oxadiazol-3-yl)methyl)phenyl)carbamate]	> 70
O=C(NCc1cccnc1)c1ccc(Cc2noc(C(F)(F)F)n2)cc1 [Compound 16, N-(pyridin-3-ylmethyl)-4-((5-(trifluoromethyl)-1,2,4-oxadiazol-3-yl)methyl)benzamide]	> 70
O=C(NCCN1CCOCC1)c1ccc(Cc2noc(C(F)(F)F)n2)cc1 [Compound 21, N-(2-morpholinoethyl)-4-((5-(trifluoromethyl)-1,2,4-oxadiazol-3-yl)methyl)benzamide]	> 70
O=C(NCc1cccc(F)c1)c1ccc(Cc2noc(C(F)(F)F)n2)cc1 [Compound 14, N-(3-fluorobenzyl)-4-((5-(trifluoromethyl)-1,2,4-oxadiazol-3-yl)methyl)benzamide]	> 70
